No constants are given. Whether binding was seen depends on the method and setting. Some entries that bind do so weakly or less than the wild type. For some of these results: Sequences can lack the tags named with a protein.

The values below come from patent US20090062190A1, “Transcriptional Regulation of Cytokines by LITAF and STAT (6)(B)” (priority 2005, published 2009).

The target of assay [1] is pGBKLITAF bait (full length LITAF in pGBKT7). The assay can be described thus: yeast two-hybrid, LITAF bait against human spleen pACT2-cDNA library, high-stringency selection.
Assay [2] has the same target. Briefly: yeast two-hybrid.
In assay [3] the target is LITAF (LPS-induced TNF-α factor), full length. Briefly: EMSA, extracts of co-transfected U2OS cells with labeled hTNF-α promoter DNA. On the technique in general: A gel shift assay detects complexes by their altered migration in electrophoresis.
Assay [4] shares this target. Briefly: EMSA (figure legend).

B1: STAT6(B) clone from the human spleen pACT2-cDNA library (activation domain fusion) (protein, not shown: large carriers)
chain: MARRNPSPPLQRLRDWGHHHCPCHPGPGWLSTDGEHPAILCQRPVHSLTGGPNPGSCSAQKSLSQEAQGGGFPEPLQAWAGTGCSDSFLSPTSSLLPAALLSLPVCHPDVTPYFIAVLLLLPHDPCPPFPPPFLPNPRALHGCLFLLTTAEQMGKDGRGYVPATIKMTVERGVWWYGQWVGQGLVVLICRKEGWHQPLVSHMYLLPSSRDQPLPTPELQMPTMVPSYDLGMAPDSSMSMQLGPDMVPQVYPPHSHSIPPYQGLSPEESVNVLSAFQEPHLQMPPSLGQMSLSFDQPHPQGLLPCQPQEHAVSSPDPLLCSDVTTVEDSCLSQPVTAFPQGTWIGEDIFPPLLPPTEQDLTKLLLEGQGESGGGSLGAQPLLQPSHYGQSGISMSHMDLRANPSW
B1: the binding result in assay [1] and in assay [2] was “binds” throughout.

B2: STAT6(B) (Signal transducer and activator of transcription), full length, aa 1-404 (protein)
chain: B1 chain
For B2, the binding result in assay [3] and in assay [4] was “binds” each time.
